Laboratory results from patent publication US5089515A, “Lipid-peroxide formation inhibiting composition and novel compounds useful therefor” (priority 1986, dated 1992).
At least one structure is not confirmed: it was looked up by name or label, or the drawing left a doubt.

Tested on: lipid-peroxide formation in cerebral homogenate
Assay: Lipid-peroxide formation inhibiting activity (TBA method, cerebral homogenate)
Format: biochemical, Wistar strain male rat
Conditions: rat cerebral homogenate, 30 minutes at 37° C
Procedure: (1) Lipid-peroxide formation inhibiting activity
(a) Preparation of cerebral homogenate
[…]. Then, cerebral irrigation was made with ice-cold physiological saline solution buffered with 50 mM phosphoric acid (pH value of 7.4, hereinafter referred to as "PBS"), and the whole brain was extracted. After removing the cerebellum, the cerebrum was weighed in the wet state, added with PBS of 9 times the weight and homogenized in ice-cold water with a teflon homogenizer. The cerebral homogenate was centrifuged at […] and 2200 rpm for 10 minutes, and 0.3 ml of the supernatant was partitioned into a ground stoppered light-resistant test tube to prepare a cerebral homogenate to be used for drug evaluation.
(b) Evaluation of test drug […]
The amount of lipid peroxide was measured at a excitation wavelength of 515 nm and a fluorescence wavelength of 550 nm using a fluoro-spectrophotometer (Model 204, made by Hitachi, Ltd.) and calculated by the following formula: [formula] where, F=fluorescence intensity of the reference solution
f=fluorescence intensity of the test drug.
Then, the inhibition rates of the test drugs at each concentration were obtained for the TBA value of the blank under (b) above and IC value were calculated by the method of least square means.

| SMILES | Percent inhibition at 100 μM [%] |
| --- | --- |
| O=C1CC(Cn2ccnc2)=NN1c1ccc(O)cc1 [Compound No. 50, 1-(4-hydroxyphenyl)-3-(1-imidazolylmethyl)-2-pyrazolin-5-one] | 14.7 |
| O=C(O)Cc1ccc(N2N=C(Cn3ccnc3)CC2=O)cc1 [Compound No. 48, 4-[3-(1-imidazolylmethyl)-5-oxo-2-pyrazolin-1-yl]-phenylaceticacid] | 0.5 |
